{
  "sequences": {"note": "By UniProt entry, the sequences of proteins in these tests, tags left out.", "UniProt Q0JBA9, entry or part of it": "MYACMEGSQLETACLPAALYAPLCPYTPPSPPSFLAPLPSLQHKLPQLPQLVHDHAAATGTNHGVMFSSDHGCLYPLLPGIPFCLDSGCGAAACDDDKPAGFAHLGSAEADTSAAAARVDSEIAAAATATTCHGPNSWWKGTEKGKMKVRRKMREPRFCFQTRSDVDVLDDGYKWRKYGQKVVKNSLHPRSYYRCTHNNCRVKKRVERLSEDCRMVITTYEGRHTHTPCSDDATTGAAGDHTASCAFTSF"},
  "source": "paper PMC7819943",
  "about": "“Rice protein-binding microarrays: a tool to detect cis-acting elements near promoter regions in rice”",
  "note": "Some of the results follow.",
  "data": [
    {"target": "OsWRKY34 (Oryza sativa, UniProt Q0JBA9 1-250)", "test": "protein-binding microarray (RPBM); PBS, 2% BSA, 51.3 ng/ul salmon testes DNA, 50 uM zinc acetate, 200 nM TF, 25 C, 1 h; high values mean tight binding", "conditions": "protein: recombinant; tags: N-terminal polyhistidine and DsRed monomer fusion (pET32a); label: CyDye5-dUTP incorporated in the synthesized complementary strand; 3' TTTTT single-stranded linker to array surface; dsDNA, one strand shown", "method_in_brief": "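Ni–NTA purification followed expression in E. coli BL21-CodonPlus of transcription factors fused N-terminally to a polyhistidine tag and DsRed. At 200 nM in PBS with 2% BSA, salmon testes DNA and 50 µM zinc acetate, the protein was incubated for 1 h at 25 °C with a custom Agilent array that had been primer-extended with Cy5-dUTP and blocked with 2% BSA. After washing, the array was read on an Axon 4000B scanner. The binding signal is per-feature fluorescence intensity in arbitrary units.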", "values": [
      {"sequence": "AATCTACACTAATTCTTCTGGTCTACACATTAAGTTATGACGGAGTCACCTAGTGCAG", "binding signal": "8670 fluorescence intensity (a.u.)"},
      {"sequence": "AGCTCGCCCGCACCGCTATGCTCCGTCCGCCACCCTTGCTCGGAGTCACCTAGTGCAG", "binding signal": "8280 fluorescence intensity (a.u.)"},
      {"sequence": "ATCATACTGTTGTTTGCTACTCCCACATATATATAACTATCGGAGTCACCTAGTGCAG", "binding signal": "8280 fluorescence intensity (a.u.)"},
      {"sequence": "TACACGCACCGTCCCCTTCCTGGGCTCCTCTTCGTCTTGCCGGAGTCACCTAGTGCAG", "binding signal": "9520 fluorescence intensity (a.u.)"},
      {"sequence": "TTCTTTGTTACGCTGTAGAAGTGGATGTTTCTGTTGTAACCGGAGTCACCTAGTGCAG", "binding signal": "10200 fluorescence intensity (a.u.)"},
      {"sequence": "ACTCCTGTAATAATTTTAGCATTCCTATCTTGGCAACACTCGGAGTCACCTAGTGCAG", "binding signal": "9410 fluorescence intensity (a.u.)"},
      {"sequence": "GTGTTTATATGGGTGAGTCTGTGTTTGTATTGTATTTCTCCGGAGTCACCTAGTGCAG", "binding signal": "12600 fluorescence intensity (a.u.)"},
      {"sequence": "ATGGTCACACATCCAATGGCTTGCGCCCAACCTTGCCGCACGGAGTCACCTAGTGCAG", "binding signal": "8800 fluorescence intensity (a.u.)"},
      {"sequence": "GCCACGCCGTGGACACGACTCCTGATTCACTATCGAGCTCCGGAGTCACCTAGTGCAG", "binding signal": "8910 fluorescence intensity (a.u.)"},
      {"sequence": "ATCTTGCTACTTCCTCCGTTTCACAATGTAAGTCATTCTACGGAGTCACCTAGTGCAG", "binding signal": "9930 fluorescence intensity (a.u.)"},
      {"sequence": "ATAATCTTCATGTTTCTTTCAAACCTTCTGTACTTAGATGCGGAGTCACCTAGTGCAG", "binding signal": "9200 fluorescence intensity (a.u.)"},
      {"sequence": "ATTGCCCACTTCGCCGCCCGTTTCGGTTTCCCTTTCTTCACGGAGTCACCTAGTGCAG", "binding signal": "10000 fluorescence intensity (a.u.)"},
      {"sequence": "GGCTTCCGCCCTTGCACACTCTTCGGTGGGGTGGTGACGCCGGAGTCACCTAGTGCAG", "binding signal": "9870 fluorescence intensity (a.u.)"},
      {"sequence": "TCCGGACGCTCGGGTAGGTGAGGGAGGGAGGGAGGAGATGCGGAGTCACCTAGTGCAG", "binding signal": "9000 fluorescence intensity (a.u.)"},
      {"sequence": "GTTTCCTCCGATTTTTCTCTTCGGCCTGACCGCCTGAGGTCGGAGTCACCTAGTGCAG", "binding signal": "9340 fluorescence intensity (a.u.)"},
      {"sequence": "TTAAGTCAACCTCCACAGATTCCTGCCACTCCATTCTATACGGAGTCACCTAGTGCAG", "binding signal": "8600 fluorescence intensity (a.u.)"},
      {"sequence": "GTGGCCTATTTAGTACGAGTACTTTTCTTCCCAACTTATCCGGAGTCACCTAGTGCAG", "binding signal": "8660 fluorescence intensity (a.u.)"},
      {"sequence": "TTGACACCATTGACTTTTTTAAACATGTTTGACCGTTCGTCGGAGTCACCTAGTGCAG", "binding signal": "15100 fluorescence intensity (a.u.)"},
      {"sequence": "ACACAAACTGTAGCTTTTTGGAGCTTCCACGTATTGTTTTCGGAGTCACCTAGTGCAG", "binding signal": "8580 fluorescence intensity (a.u.)"},
      {"sequence": "CCTACCCCGACCTCTCTCATCCTCGCCCTCACCGTCTCCACGGAGTCACCTAGTGCAG", "binding signal": "9970 fluorescence intensity (a.u.)"},
      {"sequence": "ACTCTGTTACATCCTGAACCGTGGGCCCATCTTATTTAACCGGAGTCACCTAGTGCAG", "binding signal": "9020 fluorescence intensity (a.u.)"},
      {"sequence": "TTTTTTTCTTTCTTCCTTATCCATCCCTCTCTCTCTCTTTCGGAGTCACCTAGTGCAG", "binding signal": "8320 fluorescence intensity (a.u.)"},
      {"sequence": "AGCTAGTATTCCGCTTTCTTGATAAAGCTGTTTCCGATCTCGGAGTCACCTAGTGCAG", "binding signal": "8620 fluorescence intensity (a.u.)"},
      {"sequence": "TTTCCAATCAATACATTGCCAATTTGCCATGCCCCGCGCGCGGAGTCACCTAGTGCAG", "binding signal": "10000 fluorescence intensity (a.u.)"},
      {"sequence": "TCCCACAGCCACAAATTATCATGTCACAATTTCTCCATTTCGGAGTCACCTAGTGCAG", "binding signal": "8110 fluorescence intensity (a.u.)"},
      {"sequence": "TTATATGTGGCTATTTTCTACAACTTGTTAGCCAATTTCTCGGAGTCACCTAGTGCAG", "binding signal": "8550 fluorescence intensity (a.u.)"},
      {"sequence": "CTTGTTACTAATATACTAGTATTTGAGTGTTACACGTTTTCGGAGTCACCTAGTGCAG", "binding signal": "8380 fluorescence intensity (a.u.)"},
      {"sequence": "CATCTCCCAATCCACTACTTCTTGCTGATCATCATATATCCGGAGTCACCTAGTGCAG", "binding signal": "10100 fluorescence intensity (a.u.)"},
      {"sequence": "CTCCTCGGGCTAAAAGTGGTAATACGCGTTTCTCAAGCTTCGGAGTCACCTAGTGCAG", "binding signal": "9930 fluorescence intensity (a.u.)"},
      {"sequence": "AAAATTTTCGTCCTTTTTTGCTGTTAAAATAATTTAATTTCGGAGTCACCTAGTGCAG", "binding signal": "9370 fluorescence intensity (a.u.)"},
      {"sequence": "CTCTCTCTCTCTCTCTCTCTCTCTCTCTCTGATTGTTCTCCGGAGTCACCTAGTGCAG", "binding signal": "12500 fluorescence intensity (a.u.)"},
      {"sequence": "CCTTAAATCTGCTCTCGTACTCGTACGTCCATTTCCCTTGCGGAGTCACCTAGTGCAG", "binding signal": "8560 fluorescence intensity (a.u.)"},
      {"sequence": "CTTCCTTGCCACTACCCACTACTATCCCCACCCGTGTCCCCGGAGTCACCTAGTGCAG", "binding signal": "10100 fluorescence intensity (a.u.)"},
      {"sequence": "GTTTGTGCTTCTCTCTGTGTGTGAATCGAGGAAAGCCTCGCGGAGTCACCTAGTGCAG", "binding signal": "8240 fluorescence intensity (a.u.)"},
      {"sequence": "TCTAAAGGCAGTGCCGCTAGTGATCCCAAGTTCCAAGAGTCGGAGTCACCTAGTGCAG", "binding signal": "8710 fluorescence intensity (a.u.)"},
      {"sequence": "GTTAGGATTTAAAGATGTCTTTTGGTGGGTGGGAAATCATCGGAGTCACCTAGTGCAG", "binding signal": "9160 fluorescence intensity (a.u.)"},
      {"sequence": "CTGTGGTCTAAGCTTACTGACTCGGTTTCCATGTATTTTGCGGAGTCACCTAGTGCAG", "binding signal": "8110 fluorescence intensity (a.u.)"},
      {"sequence": "GCACAACAACATTGCGTCCCTATTAATAGTACGATATTCTCGGAGTCACCTAGTGCAG", "binding signal": "8680 fluorescence intensity (a.u.)"},
      {"sequence": "CCCTTGCCACCATCCATTCCGCCGGCGCCTTATCCTACCCCGGAGTCACCTAGTGCAG", "binding signal": "8050 fluorescence intensity (a.u.)"},
      {"sequence": "AAAAATTTTTTTTCCTTTTTTTCTCCACTTTTCCACCTCTCGGAGTCACCTAGTGCAG", "binding signal": "8990 fluorescence intensity (a.u.)"},
      {"sequence": "GGACGGAGGGGCGGGGTGCGACGCGGACGGCGGCGGCGGGCGGAGTCACCTAGTGCAG", "binding signal": "13500 fluorescence intensity (a.u.)"},
      {"sequence": "TGTCTCTATCGATCGATGGCCATTTTTTTCCTGCAGGCTCCGGAGTCACCTAGTGCAG", "binding signal": "8320 fluorescence intensity (a.u.)"},
      {"sequence": "GCTTAGTTGACCAGTAGTTGTAATATCGCCGCTCGCTACTCGGAGTCACCTAGTGCAG", "binding signal": "12100 fluorescence intensity (a.u.)"},
      {"sequence": "CGCTGCGTGCCTTCTGGGTTTCTGGACGATCGGTTTTGGTCGGAGTCACCTAGTGCAG", "binding signal": "8470 fluorescence intensity (a.u.)"},
      {"sequence": "ACCCCGTGGCCCAACTCCTCTCCCGTCGGCCGTTGCTCGCCGGAGTCACCTAGTGCAG", "binding signal": "8810 fluorescence intensity (a.u.)"},
      {"sequence": "TTCAGCTTCAGGGTGGGCTCAAATGTTATTGCCACTGACTCGGAGTCACCTAGTGCAG", "binding signal": "11500 fluorescence intensity (a.u.)"},
      {"sequence": "CTTTTTTTTTTATCTATCTAGTACGACAGTAGTTGTTTTTCGGAGTCACCTAGTGCAG", "binding signal": "8580 fluorescence intensity (a.u.)"},
      {"sequence": "CACCGCCTCTCTCTCCGACGCGGCGGCGGCGCCGGCGCCGCGGAGTCACCTAGTGCAG", "binding signal": "8410 fluorescence intensity (a.u.)"},
      {"sequence": "TAACCCTAACTTACCCTTGTATCCTGCATCTTCCTAATCACGGAGTCACCTAGTGCAG", "binding signal": "8350 fluorescence intensity (a.u.)"},
      {"sequence": "TCCTCACTCTGCTTCCTTGTTTTCTCTTTCTTTTTCTTTTCGGAGTCACCTAGTGCAG", "binding signal": "13500 fluorescence intensity (a.u.)"},
      {"sequence": "CATCTTCATTCTGGTTTTTTTCTGGTCCAACCATCGGCCTCGGAGTCACCTAGTGCAG", "binding signal": "11100 fluorescence intensity (a.u.)"},
      {"sequence": "GGGGAGTATACGGCAAGGGAGTGTGCTGTGTGTGGTCTGACGGAGTCACCTAGTGCAG", "binding signal": "9320 fluorescence intensity (a.u.)"},
      {"sequence": "TCTTGTACTCACTTTTTTTCTTCTTCTCATTTTTTTGTATCGGAGTCACCTAGTGCAG", "binding signal": "8650 fluorescence intensity (a.u.)"},
      {"sequence": "ATCCATCCCGCACTGTAACACTGAAATTTCGCCCAAAAAACGGAGTCACCTAGTGCAG", "binding signal": "10200 fluorescence intensity (a.u.)"}
    ]}
  ]
}
